# Data as given in PubChem BioAssay AID540256 (National Center for Advancing Translational Sciences (NCATS), 2011).
# Screen size: about 300,000 compounds; about 3,700 (1.2%) were called active. This list was built around the results that the source calls inconclusive (neither active nor inactive); the mix of calls is not that of the screen. Calls come from the whole dose curve; tested in HEK293 cells. Potencies beside an inconclusive call are fits to weak or partial responses and may not hold up.
# Assay: qHTS for Inhibitors of binding or entry into cells for Lassa Virus; note: nearly all actives have a fitted effect of over 50% in size
# Details: Lassa virus pseudotype entry inhibition, cell reporter; activity change, negative = inhibition: at 37.9 µM (top of the series) unless noted
# % is set by controls: 0 for no effect and ±100 for the full control effect; potency is the fitted concentration of half-maximal effect.
Compound,"activity change, negative = inhibition",Potency
Clc1ccc(-c2nnc3c4ccccc4nc(N4CCOCC4)n23)cc1Cl,inactive: -0.102%,–
CC(=O)Nc1cc(C(=O)NCc2ccc(F)cc2)ccc1S(=O)(=O)c1ccc(C)cc1,–,"inconclusive: 35.5 µM [inhibitor, partial curve, poor fit]"
Oc1ccccc1/C=N/c1c(-c2ccco2)nc2ccccn12,–,"inconclusive: 18.3 µM [activator, single point]"
Cc1ccc2c(=O)cc(C(=O)Nc3ccc(S(=O)(=O)N4CCCCC4C)cc3)oc2c1C (stereo not given),inactive: 4.8% [at 46.1 µM],–
O=C(c1ccccn1)N1CCN(S(=O)(=O)c2ccc3ccccc3c2)CC1,–,"inconclusive: 11.2 µM [inhibitor, partial curve, poor fit]"
CC1CC2(C)CC(C)C1(COC(=O)Nc1ccccc1)CO2 (stereo not given),–,"inconclusive: 10 µM [inhibitor, partial curve, poor fit]"
O=C(Nc1ncc(Cc2cccc(Cl)c2)s1)c1cccs1,–,active: 8.91 µM
CCN(CC)c1ccc(NS(=O)(=O)c2cc(-c3onc(C)c3C)ccc2OC)c(C)c1,–,"inconclusive: 3.98 µM [inhibitor, partial curve, poor fit]"
CC(C)(C)NC(=O)C(c1c[nH]c2ccccc12)N(C(=O)Cn1nnc(-c2ccc(F)cc2)n1)c1cccc(O)c1 (stereo not given),–,"inconclusive: 3.26 µM [inhibitor, partial curve]"
Cc1cc(S(=O)(=O)NCCCN2CCOCC2)c(C)cc1Cl,–,"inconclusive: 1.41 µM [activator, partial curve, poor fit]"
Cc1ccc(-c2nnc(SCC(=O)Nc3ccccc3N3CCOCC3)o2)cc1,inactive: 2.41%,–
COc1ccc(C(=O)Nc2nnc(SCc3cc(=O)c4cccc(F)c4[nH]3)s2)cc1,–,"inconclusive: 6.31 µM [activator, single point]"
Cc1cccc(Nc2ncnc(N)n2)c1,inactive: 0.161%,–
CC1=CC(=O)C(C(C)=Nc2ccccc2[N+](=O)[O-])C(=O)O1 (stereo not given),–,"inconclusive: 0.794 µM [inhibitor, single point]"
COc1cccc(C(=O)N/N=C(\C)c2cccc(NC(=O)c3ccc(F)cc3)c2)c1OC,–,"inconclusive: 3.16 µM [inhibitor, partial curve, poor fit]"
C=CCn1cccc(C(=O)Nc2ccc(C)c(C)c2)c1=O,–,"inconclusive: 11.2 µM [inhibitor, partial curve]"
Cc1c(C(=O)N2CCCc3ccccc32)oc2ccc(S(=O)(=O)N3CCOCC3)cc12,–,"inconclusive: 32.6 µM [inhibitor, single point]"
CCOC(=O)c1[nH]c(C)c(CCC(=O)Nc2ccccc2OCC)c1C,–,"inconclusive: 20 µM [inhibitor, single point]"
CCCCOC(=O)c1ccc(OC(=O)c2sc3ncn(Cc4cccc(F)c4)c(=O)c3c2C)cc1,inactive: 6.92% [at 46.1 µM],–
COCC(C)NC(=O)NC1(C(F)(F)F)Oc2ccc(Cl)cc2O1 (stereo not given),–,"inconclusive: 20.6 µM [inhibitor, single point]"
COc1ccccc1-n1c(C)cc(/C=C2/C(=N)N3C(=NC2=O)SN=C3S(C)(=O)=O)c1C,–,"inconclusive: 25.1 µM [inhibitor, single point]"
COc1cccc(C2CC(c3ccc(NS(C)(=O)=O)cc3)=NN2C(=O)c2ccccc2)c1OC (stereo not given),–,"inconclusive: 4.47 µM [inhibitor, partial curve, poor fit]"
O=C(Oc1cccc2cccnc12)c1ccco1,inactive: 1.26%,–
CS(=O)(=O)Nc1ccc(N2CCN(c3ccc(C(F)(F)F)cn3)CC2)nc1,inactive: 4.9%,–

Compound,"activity change, negative = inhibition",Potency
Cc1ccc(NS(=O)(=O)c2cc(C(=O)Nc3cccc([N+](=O)[O-])c3)ccc2C)cc1,–,active: 18.4 µM
O=C(/C=C/c1ccccc1)/C=C/c1ccccc1,–,"inconclusive: 22.4 µM [inhibitor, single point]"
Cc1cc(C)n(-c2ccc(C(=O)Nc3ccc(S(=O)(=O)NCc4ccco4)cc3)cc2)n1,–,"inconclusive: 35.5 µM [inhibitor, single point]"
CC(NC(=O)c1ccco1)C(c1cccs1)N1CCN(c2ccc(F)cc2)CC1 (stereo not given),–,"inconclusive: 23.1 µM [inhibitor, single point]"
COc1ccc(CC(=O)NCc2ccccn2)cc1OC,inactive: -2.15%,–
O=C(Nc1ccccc1C(=O)NCc1ccco1)c1ccccc1,inactive: 2.01%,–
COc1ccc(C(=O)COc2ncnc3cc(Cl)ccc23)cc1,–,"inconclusive: 15.8 µM [activator, single point]"
N#C/C(=C(/O)COc1ccccc1)c1nc2ccccc2s1,–,"inconclusive: 35.5 µM [inhibitor, single point]"
Cc1cc(C)n(C(C)CC(=O)Nc2cccc(C#N)c2)n1 (stereo not given),–,"inconclusive: 35.5 µM [inhibitor, single point]"
COc1ccc(-c2nc(CN3CCN(c4cc(C)nc(C)c4)CC3)c(C)o2)c2ccccc12,–,active: 11.2 µM
Cc1cc(NC(=S)NC(=O)c2ccccc2)ccc1-c1cc2ccccc2oc1=O,–,"inconclusive: 4.47 µM [inhibitor, partial curve]"
COCCNC(=O)COC(=O)c1ccc(S(=O)(=O)N2CCOCC2)cc1,–,"inconclusive: 15.8 µM [activator, single point]"
Cc1cccc(C(=O)Nc2nnc(S(=O)(=O)N(C)Cc3ccc(Cl)cc3)s2)c1,inactive: 26% [at 46.1 µM],–
CC(=O)Nc1ccc(OCC=C(Cl)Cl)cc1,inactive: 7.78%,–
CC1CCCC(O)(C(C(=O)O)c2ccccc2)C1 (stereo not given),–,"inconclusive: 3.55 µM [inhibitor, partial curve, poor fit]"
CCCC(=O)NC(NC(=S)Nc1ccc(N=Nc2ccccc2)cc1)C(Cl)(Cl)Cl (stereo not given),–,"inconclusive: 35.5 µM [inhibitor, single point]"
COc1ccc(-c2cc(-c3ccccc3O)[nH]n2)cc1OC,–,"inconclusive: 16.4 µM [inhibitor, partial curve, poor fit]"
Cc1cc(C)n2nc(-c3sccc3-n3cccc3)cc2n1,inactive: -16.6%,–
COc1ccccc1OCCSc1nnc(C)n1-c1ccccc1,inactive: -6.13%,–
Cc1cc2c(nn1)CCc1c-2no[n+]1[O-],–,"inconclusive: 2.51 µM [inhibitor, partial curve, poor fit]"
COc1ccc(-c2nc3ccc([N+](=O)[O-])cc3[nH]2)cc1,–,active: 8.91 µM
Cc1cc(C)cc(Cn2ncc(Cl)c(Cl)c2=O)c1,–,"inconclusive: 35.5 µM [inhibitor, single point]"
COC(=O)c1cc2c(cc1NC(=O)c1cnn(-c3ccccc3)c1-n1cccc1)OCO2,inactive: 16.2% [at 46.1 µM],–
O=C(N/N=C/c1ccc(O)cc1)c1csc2c1CCCC2,inactive: -0.845%,–

# Full records, looked up by structure.
# Cc1c(C(=O)N2CCCc3ccccc32)oc2ccc(S(=O)(=O)N3CCOCC3)cc12 is listed with Potency: inconclusive: 32.6 µM [inhibitor, single point]
# O=C(c1ccccn1)N1CCN(S(=O)(=O)c2ccc3ccccc3c2)CC1 is listed with Potency: inconclusive: 11.2 µM [inhibitor, partial curve, poor fit]

# The list goes on.

Compound,"activity change, negative = inhibition",Potency
Cc1ccc(-n2c(=O)c3ccc(C(=O)NCc4ccccc4Cl)cc3n(CC(=O)Nc3cccc(Cl)c3)c2=O)cc1,–,"inconclusive: 3.55 µM [inhibitor, single point]"
Cc1cc(C)c(NC(=O)CCN2C(=O)c3ccccc3Sc3ncccc32)c(C)c1,inactive: 27.1% [at 46.1 µM],–
Fc1cccc(-c2cc3nc4c(c(N5CCC6(CC5)OCCO6)n3n2)CCCC4)c1,inactive: 2.62%,–
CN(C)C(/C=C/Nc1ccccc1F)=C(C#N)C#N,inactive: -15.2%,–
Cc1cccc2c1OCC/C2=N\NC(=O)COc1ccccc1,inactive: -2.58%,–
O=C(CN(c1ccc(Cl)cc1)S(=O)(=O)c1ccc(Cl)c([N+](=O)[O-])c1)NCCc1ccc(F)cc1,inactive: -0.67%,–
CCc1cccc(CC)c1NC(=O)c1c(C)oc2ccc(O)c(CN3CCN(C)CC3)c12,inactive: 6.09% [at 46.1 µM],–
COc1cc(/C=C2\SC(c3ccc(C)cc3)=NC2=O)cc(OC)c1O,inactive: 3.04%,–
COc1ccc(-c2n[nH]c(=S)n2Cc2ccccc2)cc1OC,–,"inconclusive: 0.316 µM [inhibitor, single point]"
COC(=O)Nc1nc(-c2ccccc2)c(C(=O)c2ccccc2)s1,–,active: 3.16 µM
Cc1nc(N2CCCC2)c2c(C(=O)N3CCN(c4ccc(F)cc4)CC3)c(C)oc2n1,inactive: -4.28% [at 46.1 µM],–
CCCS(=O)(=O)N1CCN(Cc2ccc3c(c2)c2ccccc2n3CC)CC1,–,"inconclusive: 25.9 µM [inhibitor, partial curve, poor fit]"
CCc1cc(-c2n[nH]c(C)c2-c2nc3ccccc3n2C)c(O)cc1O,–,"inconclusive: 12.6 µM [inhibitor, partial curve, poor fit]"
Cc1cc(Cl)c(OCCCCNC(C)(C)C)c(Br)c1,–,"inconclusive: 29.1 µM [inhibitor, single point]"
Cc1ccc(-c2cc(C(=O)OCC(=O)Nc3ncc(C(F)(F)F)cc3Cl)c3ccccc3n2)cc1,–,"inconclusive: 2.24 µM [inhibitor, partial curve, poor fit]"
Cc1nn(-c2ccccc2)c(OC(=O)c2cccc(Br)c2)c1S(=O)(=O)c1ccccc1,inactive: 5.79% [at 46.1 µM],–
COc1ccccc1CN1CCC(CNS(=O)(=O)c2cc(-c3onc(C)c3C)ccc2OC)CC1,inactive: -1.25% [at 46.1 µM],–
C=CCN(c1ccccc1Cl)S(=O)(=O)c1cccc(C(=O)OCC(=O)N(C)C2CCS(=O)(=O)C2)c1 (stereo not given),–,"inconclusive: 35.5 µM [inhibitor, single point]"
Cc1cc(C(=O)NNC(=O)c2cccc(S(=O)(=O)N3CCOCC3)c2)c2ccccc2n1,–,"inconclusive: 35.5 µM [inhibitor, single point]"
Cc1cc(NC(=O)CCSc2nc(-c3ccco3)cc(C(F)(F)F)n2)no1,inactive: -11.3%,–
CCOC(=O)c1c(-c2ccccc2)csc1NC(=O)CSc1nnc(C)s1,–,"inconclusive: 11.6 µM [inhibitor, partial curve, poor fit]"
CCOCCCn1c(C)nc2c(c1=O)c1nc3ccccc3nc1n2CCC1=CCCCC1,–,"inconclusive: 35.5 µM [inhibitor, single point]"

# Reprinted from the entries so far, two compounds:
Compound,"activity change, negative = inhibition",Potency
O=C(Oc1cccc2cccnc12)c1ccco1,inactive: 1.26%,–
CS(=O)(=O)Nc1ccc(N2CCN(c3ccc(C(F)(F)F)cn3)CC2)nc1,inactive: 4.9%,–
